Data on 26 compounds can be found in PubChem BioAssay AID256 (DTP/NCI, 2004).

The list shows only some results of the screen, not a fair sample: it is rich in T/C values a quarter to a half above the control, in often repeated tests (any T/C) and in doses without a T/C. Further doses and runs are listed elsewhere. T/C gives the treated animals as a percentage of the vehicle group. Some entries give survivors of the animals treated and no T/C: the source holds a T/C of zero for them, seemingly a mark for toxic or unscored doses. Some doses without a T/C left all or most animals alive at the check, yet need not have been tolerated: the source hardly ever lists a survival T/C far under the control, and the zero likely stands for such cases as well. Survivors were counted at the toxicity check, usually on the fifth day, unless a day is given; later deaths do not show. Schedules are NCI's codes, taken here to give the interval after Q, in days (D) or hours (H), and the number of doses after X. Some structures stand for samples that the source files as different forms (salt, stereo form or complex); doses refer to the form tested. Counts like (3×) stand for listed records that agree. Where survival is the endpoint, the PubChem record calls one and a half times the control and up active, and a quarter to a half above the control has no call in these data; cut-offs in other NCI protocols can differ.

The test system of the assay is CD2F1 mice, L1210 leukemia ip, survival T/C. The assay is described as follows: NCI In Vivo Anticancer Drug Screen. Data for tumor model L1210 Leukemia (intraperitoneal) in CD2F1 (CDF1) mice. The conditions noted are these: T/C endpoint: mean survival time, higher T/C = longer survival. A digest of the protocol: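 In this screen, transplantable tumors were grown in mice given either the compound or its vehicle. Results were expressed as the treated measurement relative to the control measurement.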

Setting [1] is: dose: 400.0 mg/kg/injection, schedule: Q01DX001 (ip), vehicle: saline with Tween-80.
Where [2] appears, read: dose: 400.0 mg/kg/injection, schedule: Q04DX003 (ip), vehicle: saline with Tween-80.
[3] abbreviates: dose: 12.5 mg/kg/injection, schedule: Q01DX009 (ip), vehicle: saline with Tween-80.
Setting [4] is: dose: 400.0 mg/kg/injection, schedule: Q04DX002 (ip), vehicle: saline with Tween-80.
Where [5] appears, read: dose: 400.0 mg/kg/injection, schedule: Q01DX009 (ip), vehicle: saline with Tween-80.
[6] abbreviates: dose: 25.0 mg/kg/injection, schedule: Q01DX009 (ip), vehicle: Klucel (hydroxypropylcellulose) (HPC).
Where [7] appears, read: dose: 100.0 mg/kg/injection, schedule: Q01DX009 (ip), vehicle: Klucel (hydroxypropylcellulose) (HPC).
The mark [8] stands for this setting: dose: 200.0 mg/kg/injection, schedule: Q01DX009 (ip), vehicle: saline with Tween-80.
Where [9] appears, read: dose: 400.0 mg/kg/injection, schedule: Q01DX009 (ip), vehicle: Klucel (hydroxypropylcellulose) (HPC).
Setting [10] is: dose: 150.0 mg/kg/injection, schedule: Q01DX001 (ip), vehicle: saline.
Where [11] appears, read: dose: 300.0 mg/kg/injection, schedule: Q01DX001 (ip), vehicle: saline.

As to `CCC(c1ccc(OC(=O)Cc2ccc(N(CCCl)CCCl)cc2)cc1)C(CC)c1ccc(OC(=O)Cc2ccc(N(CCCl)CCCl)cc2)cc1` (stereo unspecified), the survivor count reads like this: (dose: 3.1 mg/kg/injection, schedule: Q03HX008 (ip), vehicle: saline with Tween-80) 6 of 6; (dose: 6.3 mg/kg/injection, schedule: Q03HX016 (ip), vehicle: saline with Tween-80) 6 of 6; (dose: 12.5 mg/kg/injection, schedule: Q03HX008 (ip), vehicle: saline with Tween-80) 6 of 6; (dose: 12.5 mg/kg/injection, schedule: Q03HX016 (ip), vehicle: saline with Tween-80) 6 of 6; (dose: 25.0 mg/kg/injection, schedule: Q03HX008 (ip), vehicle: saline with Tween-80) 6 of 6; (dose: 25.0 mg/kg/injection, schedule: Q03HX016 (ip), vehicle: saline with Tween-80) 6 of 6. The survivor count is recorded as 6 of 6 (dose: 50.0 mg/kg/injection, schedule: Q01DX001 (ip), vehicle: saline with Tween-80); 6 of 6 (dose: 50.0 mg/kg/injection, schedule: Q03HX008 (ip), vehicle: saline with Tween-80); 10 of 10 (dose: 80.0 mg/kg/injection, schedule: Q04DX003 (ip), vehicle: saline); 10 of 10 (dose: 120.0 mg/kg/injection, schedule: Q04DX003 (ip), vehicle: saline); 10 of 10 (dose: 180.0 mg/kg/injection, schedule: Q04DX003 (ip), vehicle: saline); 6 of 6 (dose: 200.0 mg/kg/injection, schedule: Q01DX001 (ip), vehicle: saline with Tween-80). Moreover, the survivor count is recorded as 10 of 10 (dose: 270.0 mg/kg/injection, schedule: Q04DX003 (ip), vehicle: saline); 6 of 6 under setting [1]; 6 of 6 under setting [2]; 10 of 10 (dose: 405.0 mg/kg/injection, schedule: Q04DX003 (ip), vehicle: saline); 6 of 6 (dose: 800.0 mg/kg/injection, schedule: Q08DX002 (ip), vehicle: saline with Tween-80).
Take `NC(=S)/N=C\C(CC(O)C(O)C(O)CO)=N\NC(N)=S` (stereo unspecified): the survivor count under setting [3] is 3 of 3.
With `Nc1nc(N)c2cc(CNc3ccc(C(=O)NC(C(=O)O)C(=O)O)cc3)ccc2n1`, the survivor count is, setting by setting: (dose: 3.2 mg/kg/injection, schedule: Q01DX009 (ip), vehicle: saline) 5 of 6; (dose: 6.25 mg/kg/injection, schedule: Q01DX009 (ip), vehicle: saline with Tween-80) 2 of 6; under setting [3], 1 of 6; (dose: 12.5 mg/kg/injection, schedule: Q04DX003 (ip), vehicle: saline with Tween-80) 6 of 6; (dose: 25.0 mg/kg/injection, schedule: Q01DX009 (ip), vehicle: saline with Tween-80) 2 of 6; (dose: 25.0 mg/kg/injection, schedule: Q04DX003 (ip), vehicle: saline with Tween-80) 4 of 6. Further, the survivor count (dose: 50.0 mg/kg/injection, schedule: Q04DX003 (ip), vehicle: saline with Tween-80) is reported as 5 of 6.
With `CC(=O)OC1CCC2(C)C(CCC3C2CCC2(C)C3CC3OC(CCC(C)O)C(C)C32)C1` (stereo unspecified), the survivor count is, setting by setting: (dose: 200.0 mg/kg/injection, schedule: Q04DX002 (ip), vehicle: saline with Tween-80) 3 of 3; under setting [4], 2 of 3.
With `CNc1nc(-c2ccncc2)nc(N(C)C)n1`, the survivor count under setting [4] is on record as 0 of 3.
Regarding `O=C(CCl)OCC(Cl)Cl`, under setting [5], the survivor count is listed as 0 of 6.
For the compound `CC(NC(=O)OCc1ccccc1)C(=O)O` (stereo unspecified), the survivor count under setting [5] was 5 of 6.
Turning to `C/C(CC(=O)Nc1ccccn1)=N\c1ccccn1`, the survivor count under setting [2] is recorded as 4 of 6.
For the compound `COc1cc2c[n+](C)c3c4cc5c(cc4ccc3c2cc1OC)OCO5` (tested in a mixture with another compound), the T/C (dose: 10.0 mg/kg/injection, schedule: Q01DX009 (ip), vehicle: saline) is 128 % of control; the T/C (dose: 20.0 mg/kg/injection, schedule: Q01DX009 (ip), vehicle: saline) was 132 % of control; the T/C under setting [6] is 134 % of control; the T/C (dose: 40.0 mg/kg/injection, schedule: Q01DX009 (ip), vehicle: saline) is 139 % of control; the T/C (dose: 80.0 mg/kg/injection, schedule: Q01DX009 (ip), vehicle: saline) is 141 % of control. Also, the survivor count reads like this: (dose: 50.0 mg/kg/injection, schedule: Q01DX009 (ip), vehicle: other) 6 of 6 (2×); under setting [7], 3 of 6.
For the compound `O=C(CCCN1CCC(O)CC1)c1ccccc1`, the survivor count under setting [8] was 3 of 6.
On to `NNC(=O)c1ccc(Cl)cc1Nc1cccc(Cl)c1`, for which the survivor count under setting [2] is recorded as 0 of 6.
With `CCCCCCCCCCCCCCCC(=O)N(CCC#N)C(C)(C)CCC(C)(C)N(CCC#N)C(=O)CCCCCCCCCCCCCCC`, the survivor count under setting [9] is 6 of 6.
`C[SeH]C.C[SeH]C.O.O=S(=O)(O)O.[Pt]`: the survivor count (dose: 200.0 mg/kg/injection, schedule: Q04DX003 (ip), vehicle: other) is reported as 0 of 6.
For the compound `O=[N+]([O-])c1ccc2nsnc2c1`, under setting [5], the survivor count is 5 of 6.
For `CCCCN(C)CCNc1cc(C)nc(/N=C(\N)Nc2ccc(Cl)c(Cl)c2)n1`, the survivor count (dose: 150.0 mg/kg/injection, schedule: Q01DX001 (ip), vehicle: other) is given as 0 of 6 and the survivor count (dose: 300.0 mg/kg/injection, schedule: Q01DX001 (ip), vehicle: other) is 0 of 6.
With `O=S(=O)(F)c1cccc(Cl)c1C[P+](c1ccccc1)(c1ccccc1)c1ccccc1`, the survivor count (dose: 50.0 mg/kg/injection, schedule: Q01DX001 (ip), vehicle: Klucel (hydroxypropylcellulose) (HPC)) is listed as 3 of 6.
As for `O=C1CC23CCCN2CCc2cc4c(cc2C3=C1O)OCO4` (stereo unspecified), the survivor count is, setting by setting: under setting [6], 4 of 5; (dose: 50.0 mg/kg/injection, schedule: Q01DX009 (ip), vehicle: Klucel (hydroxypropylcellulose) (HPC)) 2 of 5; under setting [7], 0 of 5; (dose: 200.0 mg/kg/injection, schedule: Q01DX009 (ip), vehicle: Klucel (hydroxypropylcellulose) (HPC)) 0 of 5; under setting [9], 0 of 5.
Consider `CN(C1=CC(=O)C(N(C)C2CCCCC2)=CC1=O)C1CCCCC1`, for which the survivor count was 0 of 6 (dose: 75.0 mg/kg/injection, schedule: Q01DX001 (ip), vehicle: saline); 0 of 6 under setting [10]; 0 of 6 under setting [11].
On to `CN1CCN(CCCN2CC3CC=CCC3C2)CC1` (stereo unspecified), for which, under “dose: 400.0 mg/kg/injection, schedule: Q04DX003 (ip), vehicle: saline”, the survivor count was 0 of 6.
For `Nc1ccc2cc(Cl)ccc2c1`, the survivor count runs as follows: under setting [8], 4 of 6; under setting [2], 0 of 6.
Consider `Nc1nc2ccccc2c2c1C(=O)NC2=O`, for which the survivor count under setting [2] is reported as 6 of 6.
As to `CCN(CC)CCN1CC2CC=CCC2C1` (stereo unspecified), the survivor count is, setting by setting: under setting [8], 0 of 6; under setting [5], 0 of 6.
With `CN1CCCC(OC(=O)C(c2ccccc2)C2(O)CCCC2)C1` (stereo unspecified), the survivor count by setting is: under setting [10], 1 of 6; under setting [11], 0 of 6.
On to `Nc1nc2c(ncn2-c2cccc(NC(=O)Nc3ccc(S(=O)(=O)F)c(Cl)c3)c2)c(=O)[nH]1` (tested in a mixture with another compound), for which the survivor count under setting [1] was 6 of 6.
For `Oc1ccc2cc3ccccc3cc2c1`, the survivor count by setting is: (dose: 200.0 mg/kg/injection, schedule: Q01DX001 (ip), vehicle: DMSO) 1 of 3; (dose: 400.0 mg/kg/injection, schedule: Q01DX001 (ip), vehicle: DMSO) 0 of 3.
On to `O=[N+]([O-])c1ccc(Cl)c(CCl)c1`, for which, under setting [5], the survivor count is listed as 4 of 6.
